Measurements reported in US6350430B1, “Melanocortin receptor ligands and methods of using same” (Lion Bioscience Science AG, priority 1997, dated 2002).

Amino acid sequences for entries named in this document (tags omitted). A change or cut given only in a name is not applied to a line headed by its entry.
UniProt P41968: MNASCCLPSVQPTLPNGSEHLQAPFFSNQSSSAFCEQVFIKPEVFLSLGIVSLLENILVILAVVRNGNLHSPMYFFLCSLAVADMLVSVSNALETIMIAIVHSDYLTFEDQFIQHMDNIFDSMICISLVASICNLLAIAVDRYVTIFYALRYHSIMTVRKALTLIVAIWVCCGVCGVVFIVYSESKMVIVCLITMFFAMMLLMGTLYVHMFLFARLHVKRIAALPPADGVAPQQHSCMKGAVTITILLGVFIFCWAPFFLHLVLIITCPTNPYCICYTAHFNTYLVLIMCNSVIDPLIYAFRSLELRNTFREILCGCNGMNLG
UniProt P32245, whole entry: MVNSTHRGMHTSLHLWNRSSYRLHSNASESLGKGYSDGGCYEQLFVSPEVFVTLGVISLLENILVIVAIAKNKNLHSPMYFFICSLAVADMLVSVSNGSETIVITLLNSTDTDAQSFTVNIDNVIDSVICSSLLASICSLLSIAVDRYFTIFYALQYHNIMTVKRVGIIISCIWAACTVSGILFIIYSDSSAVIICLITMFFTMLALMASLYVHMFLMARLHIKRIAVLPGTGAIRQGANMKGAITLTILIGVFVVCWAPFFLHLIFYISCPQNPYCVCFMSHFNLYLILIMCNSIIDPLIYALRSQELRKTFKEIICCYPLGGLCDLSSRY

What was measured:
hMC3 = biological target: T1, hMC3 (Homo sapiens, UniProt P41968); assay: Displacement of ^125I-HP 467 in transfected mouse L cells expressing hMC3; assay type: binding
T1 construct: expressed in transfected cells; host or cells: mouse L cells

hMC4 = biological target: T2, hMC4 (Homo sapiens, UniProt P32245); assay: Displacement of ^125I-HP 467 in transfected mouse L cells expressing hMC4; assay type: binding
T2 construct: expressed in transfected cells; host or cells: mouse L cells

CCCC[C@H](NC(C)=O)C(=O)N[C@@H](CCC(N)=O)C(=O)N[C@@H](Cc1c[nH]cn1)C(=O)N[C@H](Cc1ccccc1)C(=O)N[C@@H](CCCNC(=N)N)C(=O)N[C@H](Cc1c[nH]c2ccccc12)C(=O)NCC(N)=O [HP 228, Ac-(Nle)QHfRwG-NH2, reference compound] showed an IC50 (hMC3) of 29.7 nM and an IC50 (hMC4) of 7.51 nM.
